Experimental data reported in US20210221847A1.

Protein sequences, listed by entry. Tags and fused reporters are not part of them. Residues count along the entry.
UniProt P06733, residues 2-434: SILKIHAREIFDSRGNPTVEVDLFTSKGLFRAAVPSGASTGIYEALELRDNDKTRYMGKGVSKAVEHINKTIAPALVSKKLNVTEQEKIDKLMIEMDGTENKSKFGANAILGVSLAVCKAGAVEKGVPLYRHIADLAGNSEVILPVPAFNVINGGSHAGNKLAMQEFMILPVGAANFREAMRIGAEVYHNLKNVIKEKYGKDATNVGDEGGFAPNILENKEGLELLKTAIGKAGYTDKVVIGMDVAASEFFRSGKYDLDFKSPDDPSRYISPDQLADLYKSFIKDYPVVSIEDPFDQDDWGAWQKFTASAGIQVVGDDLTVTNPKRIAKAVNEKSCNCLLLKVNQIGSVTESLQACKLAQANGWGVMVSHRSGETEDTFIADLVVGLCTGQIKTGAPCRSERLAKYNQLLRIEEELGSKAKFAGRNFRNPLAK
UniProt P04114, residues 28-4563: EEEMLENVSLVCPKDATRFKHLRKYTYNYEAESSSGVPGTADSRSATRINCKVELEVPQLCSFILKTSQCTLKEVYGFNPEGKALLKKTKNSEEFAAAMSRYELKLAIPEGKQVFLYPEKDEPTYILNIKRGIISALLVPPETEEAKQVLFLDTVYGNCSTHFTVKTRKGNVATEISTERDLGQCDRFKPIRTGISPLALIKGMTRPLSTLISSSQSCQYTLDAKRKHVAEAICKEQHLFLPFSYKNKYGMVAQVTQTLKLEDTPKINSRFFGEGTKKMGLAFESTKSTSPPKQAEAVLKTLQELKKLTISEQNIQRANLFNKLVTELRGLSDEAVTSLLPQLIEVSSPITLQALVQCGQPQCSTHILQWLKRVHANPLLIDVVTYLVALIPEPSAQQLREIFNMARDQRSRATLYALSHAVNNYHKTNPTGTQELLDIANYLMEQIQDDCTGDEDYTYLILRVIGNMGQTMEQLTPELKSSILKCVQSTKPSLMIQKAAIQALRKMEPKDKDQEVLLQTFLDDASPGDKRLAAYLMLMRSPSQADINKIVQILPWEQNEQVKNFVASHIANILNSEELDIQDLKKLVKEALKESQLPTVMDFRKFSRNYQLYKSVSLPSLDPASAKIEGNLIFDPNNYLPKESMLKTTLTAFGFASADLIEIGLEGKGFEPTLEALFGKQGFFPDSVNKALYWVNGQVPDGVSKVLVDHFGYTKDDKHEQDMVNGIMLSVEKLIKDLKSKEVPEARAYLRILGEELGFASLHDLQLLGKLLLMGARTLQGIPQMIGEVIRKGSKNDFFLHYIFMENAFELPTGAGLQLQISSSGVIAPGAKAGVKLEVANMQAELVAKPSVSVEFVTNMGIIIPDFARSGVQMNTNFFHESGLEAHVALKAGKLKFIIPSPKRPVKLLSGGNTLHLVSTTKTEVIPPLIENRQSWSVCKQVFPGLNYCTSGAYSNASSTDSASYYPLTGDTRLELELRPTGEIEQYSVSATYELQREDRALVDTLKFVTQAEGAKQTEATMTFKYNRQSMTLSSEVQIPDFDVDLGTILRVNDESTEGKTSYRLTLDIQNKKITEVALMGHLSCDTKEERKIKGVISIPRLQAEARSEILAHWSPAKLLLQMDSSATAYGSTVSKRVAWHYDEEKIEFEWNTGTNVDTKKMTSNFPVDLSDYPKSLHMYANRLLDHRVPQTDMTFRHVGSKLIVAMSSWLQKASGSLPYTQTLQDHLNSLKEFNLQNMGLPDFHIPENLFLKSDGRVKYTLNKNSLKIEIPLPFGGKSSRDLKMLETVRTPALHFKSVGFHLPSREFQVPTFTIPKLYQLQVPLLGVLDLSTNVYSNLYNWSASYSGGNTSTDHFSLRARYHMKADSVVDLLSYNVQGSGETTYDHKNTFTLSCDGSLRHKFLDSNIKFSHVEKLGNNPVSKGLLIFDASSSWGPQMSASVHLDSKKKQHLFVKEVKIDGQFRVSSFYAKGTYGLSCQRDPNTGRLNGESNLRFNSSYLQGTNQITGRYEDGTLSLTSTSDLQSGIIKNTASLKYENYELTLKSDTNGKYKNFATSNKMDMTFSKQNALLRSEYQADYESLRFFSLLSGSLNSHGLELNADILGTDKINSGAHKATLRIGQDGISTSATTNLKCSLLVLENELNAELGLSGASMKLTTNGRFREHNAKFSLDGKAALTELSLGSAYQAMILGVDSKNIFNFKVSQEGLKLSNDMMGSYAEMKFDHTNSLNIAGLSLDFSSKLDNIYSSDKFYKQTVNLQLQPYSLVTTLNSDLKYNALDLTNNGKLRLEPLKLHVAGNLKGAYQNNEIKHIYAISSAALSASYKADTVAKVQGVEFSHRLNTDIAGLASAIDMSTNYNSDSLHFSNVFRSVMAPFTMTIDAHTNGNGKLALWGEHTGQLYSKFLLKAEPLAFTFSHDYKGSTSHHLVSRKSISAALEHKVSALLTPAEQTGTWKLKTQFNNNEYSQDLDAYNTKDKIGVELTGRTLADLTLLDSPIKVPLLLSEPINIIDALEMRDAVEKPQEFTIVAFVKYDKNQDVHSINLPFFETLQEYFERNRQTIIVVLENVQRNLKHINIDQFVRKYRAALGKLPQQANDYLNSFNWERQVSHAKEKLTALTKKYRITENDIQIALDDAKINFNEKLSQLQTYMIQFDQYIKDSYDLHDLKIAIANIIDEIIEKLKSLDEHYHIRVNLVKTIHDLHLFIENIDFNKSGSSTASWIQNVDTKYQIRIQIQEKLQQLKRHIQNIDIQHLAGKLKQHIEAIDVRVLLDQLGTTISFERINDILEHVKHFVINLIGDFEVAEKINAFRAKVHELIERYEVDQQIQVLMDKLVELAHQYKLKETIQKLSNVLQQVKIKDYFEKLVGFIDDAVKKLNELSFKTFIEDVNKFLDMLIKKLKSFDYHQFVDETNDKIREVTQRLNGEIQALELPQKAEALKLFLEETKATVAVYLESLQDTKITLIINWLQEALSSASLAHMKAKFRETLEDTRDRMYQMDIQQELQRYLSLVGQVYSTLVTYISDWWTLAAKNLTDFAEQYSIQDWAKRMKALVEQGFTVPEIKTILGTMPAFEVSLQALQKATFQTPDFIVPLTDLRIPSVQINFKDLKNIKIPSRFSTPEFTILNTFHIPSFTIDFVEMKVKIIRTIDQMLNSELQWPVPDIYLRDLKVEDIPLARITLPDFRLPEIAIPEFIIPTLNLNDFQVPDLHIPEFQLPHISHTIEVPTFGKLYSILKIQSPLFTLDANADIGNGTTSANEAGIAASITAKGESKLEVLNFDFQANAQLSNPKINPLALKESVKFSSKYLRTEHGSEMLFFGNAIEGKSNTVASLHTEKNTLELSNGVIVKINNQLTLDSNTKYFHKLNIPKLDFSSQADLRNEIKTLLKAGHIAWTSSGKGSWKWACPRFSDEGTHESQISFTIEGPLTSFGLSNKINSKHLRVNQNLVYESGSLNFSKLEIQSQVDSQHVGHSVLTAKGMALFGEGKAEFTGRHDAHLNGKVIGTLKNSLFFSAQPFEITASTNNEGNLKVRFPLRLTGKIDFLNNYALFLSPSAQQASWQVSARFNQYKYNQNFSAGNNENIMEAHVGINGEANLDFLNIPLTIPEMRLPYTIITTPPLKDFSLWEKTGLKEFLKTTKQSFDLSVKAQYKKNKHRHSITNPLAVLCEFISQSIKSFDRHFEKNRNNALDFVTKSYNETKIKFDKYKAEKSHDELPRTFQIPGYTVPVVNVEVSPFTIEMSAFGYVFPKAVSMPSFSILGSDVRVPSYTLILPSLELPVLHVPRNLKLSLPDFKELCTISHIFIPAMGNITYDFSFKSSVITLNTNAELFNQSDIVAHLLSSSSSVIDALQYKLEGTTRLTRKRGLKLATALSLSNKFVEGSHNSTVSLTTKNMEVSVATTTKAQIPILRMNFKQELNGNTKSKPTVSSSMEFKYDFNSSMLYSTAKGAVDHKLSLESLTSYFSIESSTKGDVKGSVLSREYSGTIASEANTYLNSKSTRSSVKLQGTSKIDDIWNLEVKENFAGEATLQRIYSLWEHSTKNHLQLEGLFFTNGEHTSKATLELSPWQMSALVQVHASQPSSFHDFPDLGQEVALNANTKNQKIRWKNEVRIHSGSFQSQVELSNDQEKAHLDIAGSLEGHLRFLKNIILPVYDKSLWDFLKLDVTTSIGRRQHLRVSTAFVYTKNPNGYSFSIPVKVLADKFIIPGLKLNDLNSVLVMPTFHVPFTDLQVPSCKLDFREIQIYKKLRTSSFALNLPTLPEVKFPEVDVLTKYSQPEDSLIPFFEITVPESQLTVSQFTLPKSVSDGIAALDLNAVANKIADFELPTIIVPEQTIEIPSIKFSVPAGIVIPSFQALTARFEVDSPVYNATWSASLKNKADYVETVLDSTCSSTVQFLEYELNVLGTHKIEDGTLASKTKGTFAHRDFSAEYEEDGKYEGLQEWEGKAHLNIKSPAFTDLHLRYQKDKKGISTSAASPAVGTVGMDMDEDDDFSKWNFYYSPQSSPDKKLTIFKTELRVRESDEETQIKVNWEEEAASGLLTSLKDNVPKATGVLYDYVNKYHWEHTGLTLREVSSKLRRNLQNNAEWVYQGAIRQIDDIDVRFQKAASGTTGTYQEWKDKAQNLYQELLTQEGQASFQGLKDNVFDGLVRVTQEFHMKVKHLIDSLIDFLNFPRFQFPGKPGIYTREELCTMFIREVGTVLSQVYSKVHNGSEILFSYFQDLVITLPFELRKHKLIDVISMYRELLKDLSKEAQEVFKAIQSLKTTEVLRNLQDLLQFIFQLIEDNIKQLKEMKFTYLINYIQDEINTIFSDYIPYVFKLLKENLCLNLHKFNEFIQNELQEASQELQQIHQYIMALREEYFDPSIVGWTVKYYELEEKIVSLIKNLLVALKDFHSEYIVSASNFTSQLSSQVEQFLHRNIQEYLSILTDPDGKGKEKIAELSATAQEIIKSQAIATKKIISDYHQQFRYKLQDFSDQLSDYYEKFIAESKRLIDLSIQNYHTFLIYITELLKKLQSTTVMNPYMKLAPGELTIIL

Biological target: ENO1 (α-enolase) (human (rheumatoid arthritis patient)) (UniProt P06733)
Experiment: proteomic analysis using immunoprecipitation (IP)/mass spectroscopy (MS)

binding: binds
Substance: apolipoprotein B100 (apoB100) (from UniProt P04114 28-4563) (ligand)

Results are given in words; binding and its absence hold for the method and conditions named. In cells and extracts the contact can be indirect. These calls come from enrichment with a bait or labelling near it, and not all partners need be listed.
